These are yes or no findings as the source states them, for the method shown. In cells and extracts the contact can be indirect.
Target: endogenous Periphilin (human (endogenous in TASOR KO cells)) (UniProt Q8NEY8)
Test: co-IP; endogenous Periphilin immunoprecipitated, blot for mCherry-tagged TASOR constructs; lysis in 1% NP-40 in TBS with benzonase

Amino acid sequences for entries named in this document (tags omitted). A change or cut given only in a name is not applied to a line headed by its entry.
UniProt Q8NEY8: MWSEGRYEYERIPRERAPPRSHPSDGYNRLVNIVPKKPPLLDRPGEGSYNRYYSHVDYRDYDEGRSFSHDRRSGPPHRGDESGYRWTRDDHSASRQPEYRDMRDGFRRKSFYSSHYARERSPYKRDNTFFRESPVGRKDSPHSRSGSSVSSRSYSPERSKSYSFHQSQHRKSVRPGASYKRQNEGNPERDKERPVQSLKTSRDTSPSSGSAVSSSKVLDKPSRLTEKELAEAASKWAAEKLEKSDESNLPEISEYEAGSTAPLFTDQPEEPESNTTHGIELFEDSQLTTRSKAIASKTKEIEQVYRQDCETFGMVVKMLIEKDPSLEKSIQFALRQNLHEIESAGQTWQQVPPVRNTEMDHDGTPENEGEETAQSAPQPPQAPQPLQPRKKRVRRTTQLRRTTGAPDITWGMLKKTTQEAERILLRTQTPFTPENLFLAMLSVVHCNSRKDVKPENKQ

Binder	binding
mCherry-TASOR(1–1000) (domain or fragment, UniProt Q9UK61-1 1-1000) MATAVETEACQPTDASWESGGGGDDEMKQALPELESSQQNGGGGGLNIAEPSGGAGREENAGAEAAQSLSHEQPQDSSEAGAAALPRGPEEPERPVRRSFQIPRKSREKKALFQPLTPGSREFEDVVNILHSSYLEPTSVTNFNYRRACLVHNELLEKEFTEKRRELKFDGRLDKELSESYAFLMVDRYQVQTICEKGLHVGQSKITILGSPSMGVYLSRYADLLQANPLDTGAMGDVVIFKIMKGKIKSIYDPMGVKSLESMLNKSALDPTPKHECHVSKNANRITSLLAYRAYELTQYYFYEYGFDELRRRPRHVCPYAVVSFTYKDDIQTPKFVPSSRSNSFNTDRNIDKYNYTLWKGQLLNKGKLLCYISLRSATRAFLPIKLPEKLDVETVMSIDHLKQKIPPALFYKETYLGPNEVLKNGMYCSLYEVVEKTRIGSNMESLLQKLDREKLVLVKPLGDRGYLFLLSPYQMVPPYEYQTAKSRVLHALFLFQEPRSIVTSQKGSTNAAPQERHESMPDVLKIAQFLQFSLIQCRKEFKNISAINFHSVVEKYVSEFFKRGFGSGKREFIMFPYDSRLDDKKFLYSAPRNKSHIDTCLHAYIFRPEVYQLPICKLKELFEENRKLQQFSPLSDYEGQEEEMNGTKMKFGKRNNSRGEAIISGKQRSSHSLDYDKDRVKELINLIQCRKKSVGGDSDTEDMRSKTVLKRKLEDLPENMRKLAKTSNLSENCHLYEESPQPIGSLGHDADLRRQQQDTCNSGIADIHRLFNWLSETLANARHSDASLTDTVNKALGLSTDDAYEELRQKHEYELNSTPDKKDYEQPTCAKVENAQFKGTQSLLLEVDATSKYSVAISTSEVGTDHKLHLKEDPNLISVNNFEDCSLCPSVPIEHGFRRQQSKSNNVEETEIHWKLIPITGGNARSPEDQLGKHGEKQTPGMKSPEEQLVCVPPQEAFPNDPRVINRQRSSDYQFPSSPFTDTLKGTTEDDVLTGQVEE	no binding
mCherry-TASOR(1-636) (domain or fragment, UniProt Q9UK61-1 1-636) MATAVETEACQPTDASWESGGGGDDEMKQALPELESSQQNGGGGGLNIAEPSGGAGREENAGAEAAQSLSHEQPQDSSEAGAAALPRGPEEPERPVRRSFQIPRKSREKKALFQPLTPGSREFEDVVNILHSSYLEPTSVTNFNYRRACLVHNELLEKEFTEKRRELKFDGRLDKELSESYAFLMVDRYQVQTICEKGLHVGQSKITILGSPSMGVYLSRYADLLQANPLDTGAMGDVVIFKIMKGKIKSIYDPMGVKSLESMLNKSALDPTPKHECHVSKNANRITSLLAYRAYELTQYYFYEYGFDELRRRPRHVCPYAVVSFTYKDDIQTPKFVPSSRSNSFNTDRNIDKYNYTLWKGQLLNKGKLLCYISLRSATRAFLPIKLPEKLDVETVMSIDHLKQKIPPALFYKETYLGPNEVLKNGMYCSLYEVVEKTRIGSNMESLLQKLDREKLVLVKPLGDRGYLFLLSPYQMVPPYEYQTAKSRVLHALFLFQEPRSIVTSQKGSTNAAPQERHESMPDVLKIAQFLQFSLIQCRKEFKNISAINFHSVVEKYVSEFFKRGFGSGKREFIMFPYDSRLDDKKFLYSAPRNKSHIDTCLHAYIFRPEVYQLPICKLKELFEENRKLQQFSPLS	no binding

Source: publication PMC7532188
